# Measured values from paper PMC5640428.
# These are yes or no findings as the source states them, for the method shown. Binding seen in cells or lysates may run through a third protein. A yes stands for co-enrichment or nearness to the bait. Other partners may have been found.
# T1: native KCC2 (K+-Cl- cotransporter KCC2) (mouse (endogenous in brain)) (UniProt Q91V14)
# T1 sequence: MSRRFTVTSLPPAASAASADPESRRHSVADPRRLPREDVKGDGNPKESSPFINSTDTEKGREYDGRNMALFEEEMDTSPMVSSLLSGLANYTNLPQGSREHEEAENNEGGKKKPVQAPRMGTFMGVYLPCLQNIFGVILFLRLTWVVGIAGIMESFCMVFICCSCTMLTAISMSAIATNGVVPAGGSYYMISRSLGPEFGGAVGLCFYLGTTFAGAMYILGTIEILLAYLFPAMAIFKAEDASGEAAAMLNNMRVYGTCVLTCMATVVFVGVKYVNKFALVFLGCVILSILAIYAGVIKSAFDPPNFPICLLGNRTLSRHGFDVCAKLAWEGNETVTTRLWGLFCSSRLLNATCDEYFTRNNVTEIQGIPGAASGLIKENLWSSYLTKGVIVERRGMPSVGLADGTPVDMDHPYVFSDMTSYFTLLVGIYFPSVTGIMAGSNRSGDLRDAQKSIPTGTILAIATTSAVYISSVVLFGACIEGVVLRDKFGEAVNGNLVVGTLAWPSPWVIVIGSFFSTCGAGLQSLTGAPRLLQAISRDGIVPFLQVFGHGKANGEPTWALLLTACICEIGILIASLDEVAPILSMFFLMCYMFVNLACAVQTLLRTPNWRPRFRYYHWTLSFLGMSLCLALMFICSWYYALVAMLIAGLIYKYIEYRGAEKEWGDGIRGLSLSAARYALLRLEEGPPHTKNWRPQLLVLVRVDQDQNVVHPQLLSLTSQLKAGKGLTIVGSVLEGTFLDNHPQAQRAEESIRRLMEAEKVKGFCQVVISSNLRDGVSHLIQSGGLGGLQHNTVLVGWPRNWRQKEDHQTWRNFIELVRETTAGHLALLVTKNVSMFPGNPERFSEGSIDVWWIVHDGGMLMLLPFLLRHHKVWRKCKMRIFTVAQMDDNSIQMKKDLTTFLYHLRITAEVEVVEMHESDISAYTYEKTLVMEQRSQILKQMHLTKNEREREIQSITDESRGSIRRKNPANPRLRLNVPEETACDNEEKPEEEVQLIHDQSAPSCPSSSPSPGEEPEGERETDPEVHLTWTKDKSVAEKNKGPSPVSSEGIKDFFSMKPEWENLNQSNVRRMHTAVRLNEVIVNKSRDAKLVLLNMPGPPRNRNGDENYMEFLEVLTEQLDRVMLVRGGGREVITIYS
# B1: TNR (protein, UniProt Q8BYI9 32-1358)
# chain: RLEVTTERAQRQTVEEEGGASSYNTSSKEQPMVFNHVYNINVPLESLCSSGLEASAEQDMSAEDDTLAEYIGQTSDHESQVTFTHKINLPKKACPCASSSQVLQELLSRIEMLEREVSLLRDQCNTNCCQESAATGQLDYVPHCSGHGNFSFESCGCICNEGWFGKNCSEPYCPLGCSSRGVCVDGQCICDSEYSGDDCSELRCPTDCSSRGLCVDGECVCEEPYTGEDCRELRCPGDCSGKGQCANGTCLCQEGYAGEDCSQRRCLNACSGRGHCQEGLCICEEGYQGPDCSAVAPPEDLRVAGISDRSIELEWDGPMAVTEYVISYQPTALGGLQLQQRVPGDWSGVTIMELEPGLTYNISVYAVISNILSLPITAKVATHLSTPQGLQFKTITETTVEVQWEPFSFSFDGWEISFIPKNNEGGVIAQLPSDVTSFNQTGLKPGEEYIVNVVALKEQARSPPTSASVSTVIDGPTQILVRDVSDTVAFVEWTPPRAKVDFILLKYGLVGGEGGKTTFRLQPPLSQYSVQALRPGSRYEVSISAVRGTNESEASSTQFTTEIDAPKNLRVGSRTATSLDLEWDNSEAEAQEYKVVYSTLAGEQYHEVLVPKGIGPTTKTTLTDLVPGTEYGVGISAVMNSKQSIPATMNARTELDSPRDLMVTASSETSISLIWTKASGPIDHYRITFTPSSGISSEVTVPRDRTSYTLTDLEPGAEYIISITAERGRQQSLESTVDAFTGFRPISHLHFSHVTSSSVNITWSDPSPPADRLILNYSPRDKEEDMLEVLLDATKRHAVLMGLQPATEYIVNLVAVHGTVTSEPIVGSITTGIDPPKNITISNVTKDSLTVSWSSPVAPFDYYRVSYRPTQVGRLDSSVVPNTVTEFAITRLYPATEYEISLNSVRGREESERICTLVHTAMDSPMDLIATNITPTEALLQWKAPMGEVENYVIVLTHFAIAGETILVDGVSEEFQLVDLLPSTHYTVTMYATSGPLMSGTIATNFSTLLDPPDNLTASEVTRQSALISWQPPRAAIENYVLTYKSTDGSRKELIVDAEDTWIRLEGLSENTDYTVLLQAAQEATRSSLTSTVFTTGGRVFSHPQDCAQHLMNGDTLSGVYTIFLNGELSHKLQVYCDMTTDGGGWIVFQRRQNGQTDFFRKWADYRVGFGNLEDEFWLGLDNIHRITAQGRYELRVDMRDGQEAVFAYYDKFAVEDSRSLYKIRIGSYNGTAGDSLSYHQGRPFSTEDRDNDVAVTNCAMSYKGAWWYKNCHRTNLNGKYGESRHSQGINWYHWKGHEFSIPFVEMKMRPYIHRLTAGRKRRALKF
# B2: ATP5C1 (protein, UniProt Q91VR2 26-298)
# chain: ATLKDITRRLKSIKNIQKITKSMKMVAAAKYARAERELKPARVYGTGSLALYEKADIKAPEDKKKHLIIGVSSDRGLCGAIHSSVAKQMKNEVAALTAAGKEVMIVGVGEKIKGILYRTHSDQFLVSFKDVGRKPPTFGDASVIALELLNSGYEFDEGSIIFNQFKSVISYKTEEKPIFSLNTIATAETMSIYDDIDADVLQNYQEYNLANLIYYSLKESTTSEQSARMTAMDNASKNASDMIDKLTLTFNRTRQAVITKELIEIISGAAALD
# B3: SLC25A3 (protein, UniProt Q8VEM8 46-357)
# chain: AVEEYSCEFGSMKYYALCGFGGVLSCGLTHTAVVPLDLVKCRMQVDPQKYKGIFNGFSITLKEDGVRGLAKGWAPTLIGYSMQGLCKFGFYEVFKALYSNILGEENTYLWRTSLYLASSASAEFFADIALAPMEAAKVRIQTQPGYANTLREAVPKMYKEEGLNAFYKGVAPLWMRQIPYTMMKFACFERTVEALYKFVVPKPRSECTKAEQLVVTFVAGYIAGVFCAIVSHPADSVVSVLNKEKGSTASQVLQRLGFRGVWKGLFARIIMIGTLTALQWFIYDSVKVYFRLPRPPPPEMPESLKKKLGLTE
# B4: RAB3IP (protein, UniProt Q68EF0 1-428)
# chain: MANDPLEGFHEVNLASPTSPDLLGVCDPGTQEQTTSPSVIYRPHPSTLCAAPLQANALDLSDLPTQPVYSSPRHFNCAEVSNISAHAPDPASSVPSAVASGLTKLTSRKDSCNAEREFLQGATITEASAGNDDIFGLSTDSLSRLRSPSVLEVREKGYERLKEELAKAQREAHKMVREANVKQATAEKQLKEAQGKIDVLQAEVAALKTLVLSSSPTSPTQEPLAAAKTPFKRGHTRNKSTSSAMGGSHQDLSVIQPIVKDCKEADLSLYNEFRSWKDEPTMDRTCPFLDKIYQEDIFPCLTFAKSELASAVLEAVENNTLSIEPVGLQPIRFVKASAVECGGPKKCALTGQSKPCRHRIRLGDSSCCYYISPFCRYRITSVCNFFTYIRYIQQGLVKQQDVDQMFWEVMQLRKEMSLAKLGYFKEEL
# B5: DCLK1 (protein, UniProt Q9JLM8 1-756)
# chain: MSFGRDMELEHFDERDKAQRYSRGSRVNGLPSPTHSAHCSFYRTRTLQTLSSEKKAKKVRFYRNGDRYFKGIVYAISPDRFRSFEALLADLTRTLSDNVNLPQGVRTIYTIDGLKKISSLDQLVEGESYVCGSIEPFKKLEYTKNVNPNWSVNVKTTSASRAVSSLATAKGGPSEVRENKDFIRPKLVTIIRSGVKPRKAVRILLNKKTAHSFEQVLTDITDAIKLDSGVVKRLYTLDGKQVMCLQDFFGDDDIFIACGPEKFRYQDDFLLDESECRVVKSTSYTKIASASRRGTTKSPGPSRRSKSPASTSSVNGTPGSQLSTPRSGKSPSPSPTSPGSLRKQRISQHGGSSTSLSSTKVCSSMDENDGPGEGDELGRRHSLQRGWRREESEEGFQIPATITERYKVGRTIGDGNFAVVKECIERSTAREYALKIIKKSKCRGKEHMIQNEVSILRRVKHPNIVLLIEEMDVPTELYLVMELVKGGDLFDAITSTSKYTERDASGMLYNLASAIKYLHSLNIVHRDIKPENLLVYEHQDGSKSLKLGDFGLATIVDGPLYTVCGTPTYVAPEIIAETGYGLKVDIWAAGVITYILLCGFPPFRGSGDDQEVLFDQILMGQVDFPSPYWDNVSDSAKELINMMLLVNVDQRFSAVQVLEHPWVNDDGLPENEHQLSVAGKIKKHFNTGPKPSSTAAGVSVIATTALDKERQVFRRRRNQDVRSRYKAQPAPPELNSESEDYSPSSSETVRSPNSPF
# B6: C1QC (protein, UniProt Q02105 30-246)
# chain: SAGCYGIPGMPGMPGAPGKDGHDGLQGPKGEPGIPAVPGTRGPKGQKGEPGMPGHRGKNGPRGTSGLPGDPGPRGPPGEPGVEGRYKQKHQSVFTVTRQTTQYPEANALVRFNSVVTNPQGHYNPSTGKFTCEVPGLYYFVYYTSHTANLCVHLNLNLARVASFCDHMFNSKQVSSGGVLLRLQRGDEVWLSVNDYNGMVGIEGSNSVFSGFLLFPD
# B7: ADGRL2 (protein, UniProt Q8JZZ7 26-1487)
# chain: FSRAALPFGLVRRELSCEGYSIDLRCPGSDVIMIESANYGRTDDKICDADPFQMENTDCYLPDAFKIMTQRCNNRTQCIVVTGSDVFPDPCPGTYKYLEVQYECVPYSKMLVFVCPGTLKAIVDSPCIYEAEQKSGAWCKDPLQAADKIYFMPWTPYRTDTLIEYASLEDFQNSRQTTTYKLPNRVDGTGFVVYDGAVFFNKERTRNIVKFDLRTRIKSGEAIINYANYHDTSPYRWGGKTDIDLAVDENGLWVIYATEQNNGMIVISQLNPYTLRFEATWETAYDKRAASNAFMICGVLYVVRSVYQDNESEAGKNTIDYIYNTRLSRGEYVDVPFPNQYQYIAAVDYNPRDNQLYVWNNNFILRYSLEFGPPDPAQVPTTAVTITSSAELFKTTISTTSSASQRGPVSSTAAGPQDGSRGTKPPPAVSTTKIPPVTNIFPLPERFCEALDWKGIKWPQTQRGMMVERPCPKGTRGTASYLCMASTGTWNPKGPDLSNCTSHWVNQLAQKIRSGENAASLANELAKHTKGHVFAGDVSSSVRLMEQLVDILDAQLQELKPSEKDSAGRSYNKLQKREKTCRAYLKAIVDTVDNLLRAEALESWKHMNSSEQAHTATMLLDTLEEGAFVLADNLLEPTRVSMPTENIVLEVAVLSTEGQVQDFKFPLGLKGLGSSIQLSANTVKQNSRNGLAKLVFIIYRSLGQFLSTENATIKLGADLMGRNSTIAVNSPVISVSINKESSRVYLTDPVLFTLPHIDPDNYFNANCSFWNYSERTMMGYWSTQGCKLVDTNKTRTTCACSHLTNFAILMAHREIAYKDGVHHLLLTVITWVGIVVSLVCLAICIFTFCFFRGLQSDRNTIHKNLCINLFIAEFIFLIGIDKTKYTIACPVFAGLLHFFFLAAFSWMCLEGVQLYLMLVEVFESEYSRKKYYYVAGYLFPATVVGVSAAIDYKSYGTVQACWLHVDNYFIWSFIGPVTFIILLNIIFLVITLCKMVKHSNTLKPDSSRLENINNYRVCDGYYNTDLPGYEDNKPFIKSWVLGAFALLCLLGLTWSFGLLFVNEETVVMAYLFTAFNAFQGLFIFIFHCALQKKVRKEYGKCFRHWYCCGGLPTESPHSSVKASTTRTSARYSSGTQSRIRRMWNDTVRKQSESSFISGDINSTSTLNQGMTGNYLLTNPLLRPHGTNNPYNTLLAETVVCNAPSAPAFNSPGHSLNNARDTSAMDTLPLNGNFNNSYSLRKADYHDGVQVVDCGLSLNDTAFEKMIISELVHNNLRGGNKTHNLELKLPVKPVIGGSSSEDDAIVADASSLMHGDNPGLEFRHKELEAPLIPQRTHSLLYQPQKKVKPEATDSYVSQLTAEADDHLQSPNRDSLYTSMPNLRDSPYPESSPDMAEDLSPSRRSENEDIYYKSMPNLGAGRHLHMCYQISRGNSDGYIIPINKEGCIPEGDVREGQMQLVTSL
# B8: UQCR11 (protein, UniProt Q9CPX8 1-56)
# chain: MLSRFLGPRYRELARNWIPTAGMWGTVGAVGLVWATDWRLILDWVPYINGKFKKDD
# Biological target: T1, native KCC2 (K+-Cl- cotransporter KCC2) (mouse (endogenous in brain))
# Assay: affinity purification with mass spectrometry; anti-KCC2 antibodies (C-terminal, N-terminal KCC2b, pS940) cross-linked with DMP to GammaBind IgG beads; C12E9-solubilised whole-brain membrane fractions of P5 and P50 mice; 4 hr, 4°C; parallel IgG/IgY controls
row,binding,Binder
1,binds,B1
2,binds,B2
3,binds,B3
4,binds,B4
5,binds,B5
6,binds,B6
7,binds,B7
8,binds,B8
